Our source for the binding values is paper PMC11388069.

Sequences of proteins named here, by UniProt entry; tags and fusion partners are left off.
UniProt P08183: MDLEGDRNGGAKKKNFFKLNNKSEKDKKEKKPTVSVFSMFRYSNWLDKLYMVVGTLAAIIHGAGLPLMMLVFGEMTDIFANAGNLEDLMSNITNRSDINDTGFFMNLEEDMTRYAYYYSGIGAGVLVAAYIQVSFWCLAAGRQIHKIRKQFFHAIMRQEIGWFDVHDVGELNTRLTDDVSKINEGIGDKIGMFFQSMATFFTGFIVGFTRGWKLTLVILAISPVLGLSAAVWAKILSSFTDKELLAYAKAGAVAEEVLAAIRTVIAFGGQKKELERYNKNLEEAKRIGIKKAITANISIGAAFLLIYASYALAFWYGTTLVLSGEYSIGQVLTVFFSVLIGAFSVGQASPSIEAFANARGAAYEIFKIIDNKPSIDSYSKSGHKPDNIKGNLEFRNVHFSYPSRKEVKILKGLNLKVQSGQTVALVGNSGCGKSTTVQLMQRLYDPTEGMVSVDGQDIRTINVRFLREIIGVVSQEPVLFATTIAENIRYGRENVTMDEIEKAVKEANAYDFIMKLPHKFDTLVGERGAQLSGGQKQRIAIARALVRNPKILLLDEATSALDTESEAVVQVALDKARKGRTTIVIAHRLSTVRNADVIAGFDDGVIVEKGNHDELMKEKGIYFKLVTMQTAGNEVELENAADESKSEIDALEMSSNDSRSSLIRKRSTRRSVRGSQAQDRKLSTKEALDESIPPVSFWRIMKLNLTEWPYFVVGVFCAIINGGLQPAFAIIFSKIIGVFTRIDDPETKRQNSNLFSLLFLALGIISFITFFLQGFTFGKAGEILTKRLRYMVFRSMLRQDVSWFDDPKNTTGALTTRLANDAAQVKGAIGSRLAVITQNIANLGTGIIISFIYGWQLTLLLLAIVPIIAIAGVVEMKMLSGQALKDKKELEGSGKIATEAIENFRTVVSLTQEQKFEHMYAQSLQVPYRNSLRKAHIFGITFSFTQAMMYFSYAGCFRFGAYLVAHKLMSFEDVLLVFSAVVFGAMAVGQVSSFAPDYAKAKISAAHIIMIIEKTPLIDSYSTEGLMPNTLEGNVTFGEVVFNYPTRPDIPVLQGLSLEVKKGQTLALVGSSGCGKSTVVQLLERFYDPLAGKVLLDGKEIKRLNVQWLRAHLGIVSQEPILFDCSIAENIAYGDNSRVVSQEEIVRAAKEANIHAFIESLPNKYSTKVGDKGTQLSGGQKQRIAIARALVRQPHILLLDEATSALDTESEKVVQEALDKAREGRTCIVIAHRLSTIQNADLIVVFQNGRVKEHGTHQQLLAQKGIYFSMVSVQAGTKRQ

No constants are given. Whether binding was seen depends on the method and setting. In cells and extracts the contact can be indirect. Some results given as binding are weak or reduced against the parent protein; the word gives no strength.

This assay concerns the target wild type P-gp, full length (transfected) (UniProt P08183). In words: co-IP; cells transfected with P-gp, MGAT3 plus P-gp, MGAT3 plus P-gp Mut2, or full-length and truncated P-gp; immunoprecipitation and western blot. Background: A western blot detects proteins with antibodies after separation by electrophoresis.

B1: VPS4A (protein, UniProt Q9UN37 1-437)
chain: MTTSTLQKAIDLVTKATEEDKAKNYEEALRLYQHAVEYFLHAIKYEAHSDKAKESIRAKCVQYLDRAEKLKDYLRSKEKHGKKPVKENQSEGKGSDSDSEGDNPEKKKLQEQLMGAVVMEKPNIRWNDVAGLEGAKEALKEAVILPIKFPHLFTGKRTPWRGILLFGPPGTGKSYLAKAVATEANNSTFFSVSSSDLMSKWLGESEKLVKNLFELARQHKPSIIFIDEVDSLCGSRNENESEAARRIKTEFLVQMQGVGNNNDGTLVLGATNIPWVLDSAIRRRFEKRIYIPLPEEAARAQMFRLHLGSTPHNLTDANIHELARKTEGYSGADISIIVRDSLMQPVRKVQSATHFKKVCGPSRTNPSMMIDDLLTPCSPGDPGAMEMTWMDVPGDKLLEPVVCMSDMLRSLATTRPTVNADDLLKVKKFSEDFGQES
On to B1, for which the binding result is listed as “binds”.
